Results are given in words; binding and its absence hold for the method and conditions named. In cells and extracts the contact can be indirect. A yes stands for co-enrichment or nearness to the bait. Other partners may have been found.

Amino acid sequences for entries named in this document (tags omitted).
UniProt P49674: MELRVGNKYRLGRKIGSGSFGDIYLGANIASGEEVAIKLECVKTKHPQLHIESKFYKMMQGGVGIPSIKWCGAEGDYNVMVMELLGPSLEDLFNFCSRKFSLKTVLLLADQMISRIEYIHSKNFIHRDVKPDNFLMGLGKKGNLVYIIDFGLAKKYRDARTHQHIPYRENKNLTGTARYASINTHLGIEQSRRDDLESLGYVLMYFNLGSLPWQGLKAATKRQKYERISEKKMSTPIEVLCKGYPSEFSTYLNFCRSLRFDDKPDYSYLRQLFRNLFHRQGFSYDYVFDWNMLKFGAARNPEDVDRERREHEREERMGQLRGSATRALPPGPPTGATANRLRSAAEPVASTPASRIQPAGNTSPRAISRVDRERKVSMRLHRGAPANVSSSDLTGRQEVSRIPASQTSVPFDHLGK

The assay concerns the target HA-Flag-SHFL (Shiftless) (UniProt Q9NUL5). Nature of the assay: affinity purification with mass spectrometry; HA-Flag tandem affinity purification of HA-Flag-SHFL from doxycycline-induced HEK293 cells; lysate in Co-IP buffer (150 mM NaCl, 25 mM Tris-HCl pH 7.4, 2 mM MgCl2, 0.5% IGEPAL CA-630) with 250 U/mL Benzonase; label-free quantification.

Turning to “endogenous casein kinase 1 epsilon (CK1ε) (from UniProt P49674 1-416) (enzyme)”, the binding entry is “binds”.
